Data taken from patent US20100247602A1, “METHOD OF REDUCING THE EFFECTS OF CYTOSTATIC DRUGS ON BONE MARROW DERIVED CELLS, AND METHODS OF SCREENING” (priority 2007, published 2010).
At least one structure is not confirmed: it was looked up by name or label, or the drawing left a doubt.

Experiments:
[1] = system: bone marrow derived cells (BMDCs); test: Differentiation profile of BMDCs by flow cytometry; format: cell-based, mouse (C57BL/6 female mice); conditions: one-week treatment at IC50 concentration
Experimental: BMDCs were cultured and isolated as described above.
BMDCs were plated and grown during 7 days before treatment (stimulation). Rapamycin (LC Laboratories) or paclitaxel (LC laboratories) were added for a one week treatment at IC50 concentration. Afterward, cells were washed twice in PBS and non specific binding sites were blocked with 5% normal rat serum (Jackson Immunoresearch Laboratories Inc.). To evaluate the differentiation profile of the BMDCs, quadruple stainings were performed as follow: 1) for the HSC allophycocyanin (APC, Caltag Laboratories, Carlsbad, Calif.) conjugated monoclonal rat-anti-mouse CD117, fluorescein isothiocyanate (FITC, BD pharmingen, San Jose, Calif.) conjugated monoclonal rat anti-mouse CD31 (platelet endothelial cell adhesion molecules-1, PECAM), biotin conjugated monoclonal rat anti-mouse CD34 (Bio, BD pharmingen), growth factor receptor-2 (VEGFR2); and 2) for the stromal cells: APC (Abcam Inc., Cambridge Mass.) conjugated monoclonal rat anti-mouse CD90, FITC conjugated (BD pharmingen) monoclonal rat anti-mouse CD44 (hyaluronic acid receptor), PE conjugated monoclonal rat anti-mouse vascular cell adhesion molecule (V-CAM/CD106, Abcam Inc.), biotin (Abcam Inc.) conjugated monoclonal rat anti-mouse CD105 (Endoglin). […]

[2] = system: ERα and ERβ expressed by BMDCs; test: Western blot, ratio of ERα expression over ERβ in BMDCs; format: cell-based, mouse (C57BL/6 female mice); conditions: 24-hour stimulation, 10-11M to 10^-7M, compared to cells maintained in HPGM only
Experimental: Membranes were stripped with Re-Blot Plus™ (International Chemicon) and total protein expression was determined with a goat polyclonal β-actin (1:1000 dilution, Santa Cruz Biotechnology Inc.).

CO[C@H]1C[C@@H]2CC[C@@H](C)[C@@](O)(O2)C(=O)C(=O)N2CCCC[C@H]2C(=O)O[C@H]([C@H](C)C[C@@H]2CC[C@@H](O)[C@H](OC)C2)CC(=O)[C@H](C)/C=C(\C)[C@@H](O)[C@@H](OC)C(=O)[C@H](C)C[C@H](C)/C=C/C=C/C=C/1C [rapamycin]
differentiation profile of CD117+ or CD44+ [1]: does not affect
ERα/ERβ ratio [2]: remained unchanged
